{
  "sequences": {"note": "The chains behind the UniProt entries cited, without tags or fusion partners.", "UniProt Q8TDY2": "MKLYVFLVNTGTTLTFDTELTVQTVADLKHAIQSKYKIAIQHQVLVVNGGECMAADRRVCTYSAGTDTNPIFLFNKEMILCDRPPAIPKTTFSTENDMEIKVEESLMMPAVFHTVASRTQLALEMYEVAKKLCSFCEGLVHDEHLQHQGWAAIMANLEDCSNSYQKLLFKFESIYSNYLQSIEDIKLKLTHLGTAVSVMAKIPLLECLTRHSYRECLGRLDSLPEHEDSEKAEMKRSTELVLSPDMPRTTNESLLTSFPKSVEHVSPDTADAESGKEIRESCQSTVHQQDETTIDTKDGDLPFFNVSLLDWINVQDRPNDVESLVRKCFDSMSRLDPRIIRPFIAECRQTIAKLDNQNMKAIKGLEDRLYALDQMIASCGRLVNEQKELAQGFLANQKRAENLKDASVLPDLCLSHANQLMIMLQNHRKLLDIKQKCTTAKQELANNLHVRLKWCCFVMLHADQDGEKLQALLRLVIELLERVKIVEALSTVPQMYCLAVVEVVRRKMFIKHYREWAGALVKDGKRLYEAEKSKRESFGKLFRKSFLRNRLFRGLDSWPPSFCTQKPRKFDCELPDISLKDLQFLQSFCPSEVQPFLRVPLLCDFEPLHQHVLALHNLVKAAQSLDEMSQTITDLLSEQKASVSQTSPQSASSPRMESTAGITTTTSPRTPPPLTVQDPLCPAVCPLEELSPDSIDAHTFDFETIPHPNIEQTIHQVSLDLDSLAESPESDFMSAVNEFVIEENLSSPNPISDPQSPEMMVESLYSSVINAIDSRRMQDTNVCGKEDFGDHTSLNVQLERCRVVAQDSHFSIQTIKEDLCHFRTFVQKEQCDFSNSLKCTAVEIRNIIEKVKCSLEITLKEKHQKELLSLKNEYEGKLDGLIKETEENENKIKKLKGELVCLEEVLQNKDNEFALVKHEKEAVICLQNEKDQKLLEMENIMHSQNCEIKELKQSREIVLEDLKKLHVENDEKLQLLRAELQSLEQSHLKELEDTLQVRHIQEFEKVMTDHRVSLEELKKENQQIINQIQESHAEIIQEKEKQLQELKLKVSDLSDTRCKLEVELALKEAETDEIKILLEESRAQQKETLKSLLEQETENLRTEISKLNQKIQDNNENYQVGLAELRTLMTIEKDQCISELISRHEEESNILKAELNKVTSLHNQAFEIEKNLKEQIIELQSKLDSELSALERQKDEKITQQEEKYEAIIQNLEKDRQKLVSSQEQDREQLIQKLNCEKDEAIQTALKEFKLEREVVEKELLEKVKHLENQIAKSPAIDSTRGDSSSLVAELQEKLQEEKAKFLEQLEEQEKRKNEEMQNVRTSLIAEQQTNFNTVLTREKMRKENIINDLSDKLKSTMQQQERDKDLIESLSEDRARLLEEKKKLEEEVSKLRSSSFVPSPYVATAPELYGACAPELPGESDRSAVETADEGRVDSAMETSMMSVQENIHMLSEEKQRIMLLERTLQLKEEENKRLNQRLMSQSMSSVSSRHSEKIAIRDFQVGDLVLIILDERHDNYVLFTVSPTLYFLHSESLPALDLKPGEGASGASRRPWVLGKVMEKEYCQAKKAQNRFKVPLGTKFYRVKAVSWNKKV"},
  "source": "paper PMC10020552",
  "key": {"[1]": {"molecular_target": "T1, mitochondrial Lon (endogenous) (human (endogenous in HCT-15)) (UniProt P36776)", "T1 sequence": "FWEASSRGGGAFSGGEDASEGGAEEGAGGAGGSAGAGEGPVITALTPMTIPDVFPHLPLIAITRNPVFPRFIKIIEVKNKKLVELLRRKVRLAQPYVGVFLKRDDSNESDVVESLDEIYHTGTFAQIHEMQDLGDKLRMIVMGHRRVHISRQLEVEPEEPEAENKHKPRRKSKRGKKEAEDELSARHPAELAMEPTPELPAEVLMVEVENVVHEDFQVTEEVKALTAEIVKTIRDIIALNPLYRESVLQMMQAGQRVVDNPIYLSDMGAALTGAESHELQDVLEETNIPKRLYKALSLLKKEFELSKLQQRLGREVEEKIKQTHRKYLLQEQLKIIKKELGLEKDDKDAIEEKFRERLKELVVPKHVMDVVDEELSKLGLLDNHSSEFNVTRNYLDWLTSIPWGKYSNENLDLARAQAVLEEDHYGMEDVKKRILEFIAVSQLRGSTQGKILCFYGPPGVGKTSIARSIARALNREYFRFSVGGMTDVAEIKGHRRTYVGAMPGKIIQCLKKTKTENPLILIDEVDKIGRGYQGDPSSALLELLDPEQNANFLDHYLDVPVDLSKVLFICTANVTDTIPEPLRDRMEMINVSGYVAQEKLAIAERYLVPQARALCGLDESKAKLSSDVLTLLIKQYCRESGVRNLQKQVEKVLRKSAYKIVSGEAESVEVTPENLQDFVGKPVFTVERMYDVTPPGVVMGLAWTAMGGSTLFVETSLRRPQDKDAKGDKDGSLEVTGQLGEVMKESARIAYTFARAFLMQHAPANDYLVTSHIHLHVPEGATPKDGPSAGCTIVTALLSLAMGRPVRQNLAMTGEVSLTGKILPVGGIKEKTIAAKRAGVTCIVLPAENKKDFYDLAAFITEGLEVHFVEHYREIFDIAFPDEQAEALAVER", "test": "co-IP; endogenous proteins; whole cell lysates of HCT-15 cells treated with CoCl2 (200 μM for 18 h); precipitated with anti-ULK1 (Fig. 5A) or with Lon (Fig. S5A); Western blot"}, "[2]": {"molecular_target": "T2, ULK1 (Unc-51 like kinase), endogenous (human (endogenous in HCT-15)) (UniProt O75385)", "T2 sequence": "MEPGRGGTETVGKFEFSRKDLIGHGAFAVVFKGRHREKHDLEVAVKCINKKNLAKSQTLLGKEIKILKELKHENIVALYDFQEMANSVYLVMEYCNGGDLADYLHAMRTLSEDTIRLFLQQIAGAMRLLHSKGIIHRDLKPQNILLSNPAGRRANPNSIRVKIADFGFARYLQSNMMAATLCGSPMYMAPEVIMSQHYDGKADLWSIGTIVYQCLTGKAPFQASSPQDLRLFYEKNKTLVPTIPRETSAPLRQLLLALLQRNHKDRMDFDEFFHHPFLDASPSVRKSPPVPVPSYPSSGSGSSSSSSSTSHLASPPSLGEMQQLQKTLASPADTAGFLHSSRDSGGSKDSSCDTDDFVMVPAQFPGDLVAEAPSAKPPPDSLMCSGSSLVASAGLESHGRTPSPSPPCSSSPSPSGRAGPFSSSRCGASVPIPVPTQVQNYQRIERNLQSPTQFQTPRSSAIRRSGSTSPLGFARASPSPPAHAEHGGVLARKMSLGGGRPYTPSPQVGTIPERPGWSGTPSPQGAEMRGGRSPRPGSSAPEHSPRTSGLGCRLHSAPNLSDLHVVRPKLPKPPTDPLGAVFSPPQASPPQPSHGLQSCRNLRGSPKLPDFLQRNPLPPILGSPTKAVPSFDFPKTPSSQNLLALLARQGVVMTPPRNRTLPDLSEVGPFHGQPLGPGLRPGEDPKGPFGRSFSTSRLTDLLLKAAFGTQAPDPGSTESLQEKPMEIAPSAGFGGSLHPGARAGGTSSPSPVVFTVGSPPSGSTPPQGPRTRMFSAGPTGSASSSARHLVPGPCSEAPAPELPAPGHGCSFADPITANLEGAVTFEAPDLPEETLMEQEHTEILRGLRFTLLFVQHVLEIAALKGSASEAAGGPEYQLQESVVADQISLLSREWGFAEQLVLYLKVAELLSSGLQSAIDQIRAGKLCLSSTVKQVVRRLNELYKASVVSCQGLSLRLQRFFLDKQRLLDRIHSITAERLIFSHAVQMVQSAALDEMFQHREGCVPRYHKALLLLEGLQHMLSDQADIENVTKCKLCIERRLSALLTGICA", "test": "co-IP; endogenous proteins; whole cell lysates of HCT-15 cells treated with CoCl2 (200 μM for 18 h); precipitated with anti-ULK1 (Fig. 5A) or with Lon (Fig. S5A); Western blot"}, "Flag-ULK1 [3]": {"molecular_target": "T3, Flag-ULK1 (UniProt O75385)", "T3 sequence": "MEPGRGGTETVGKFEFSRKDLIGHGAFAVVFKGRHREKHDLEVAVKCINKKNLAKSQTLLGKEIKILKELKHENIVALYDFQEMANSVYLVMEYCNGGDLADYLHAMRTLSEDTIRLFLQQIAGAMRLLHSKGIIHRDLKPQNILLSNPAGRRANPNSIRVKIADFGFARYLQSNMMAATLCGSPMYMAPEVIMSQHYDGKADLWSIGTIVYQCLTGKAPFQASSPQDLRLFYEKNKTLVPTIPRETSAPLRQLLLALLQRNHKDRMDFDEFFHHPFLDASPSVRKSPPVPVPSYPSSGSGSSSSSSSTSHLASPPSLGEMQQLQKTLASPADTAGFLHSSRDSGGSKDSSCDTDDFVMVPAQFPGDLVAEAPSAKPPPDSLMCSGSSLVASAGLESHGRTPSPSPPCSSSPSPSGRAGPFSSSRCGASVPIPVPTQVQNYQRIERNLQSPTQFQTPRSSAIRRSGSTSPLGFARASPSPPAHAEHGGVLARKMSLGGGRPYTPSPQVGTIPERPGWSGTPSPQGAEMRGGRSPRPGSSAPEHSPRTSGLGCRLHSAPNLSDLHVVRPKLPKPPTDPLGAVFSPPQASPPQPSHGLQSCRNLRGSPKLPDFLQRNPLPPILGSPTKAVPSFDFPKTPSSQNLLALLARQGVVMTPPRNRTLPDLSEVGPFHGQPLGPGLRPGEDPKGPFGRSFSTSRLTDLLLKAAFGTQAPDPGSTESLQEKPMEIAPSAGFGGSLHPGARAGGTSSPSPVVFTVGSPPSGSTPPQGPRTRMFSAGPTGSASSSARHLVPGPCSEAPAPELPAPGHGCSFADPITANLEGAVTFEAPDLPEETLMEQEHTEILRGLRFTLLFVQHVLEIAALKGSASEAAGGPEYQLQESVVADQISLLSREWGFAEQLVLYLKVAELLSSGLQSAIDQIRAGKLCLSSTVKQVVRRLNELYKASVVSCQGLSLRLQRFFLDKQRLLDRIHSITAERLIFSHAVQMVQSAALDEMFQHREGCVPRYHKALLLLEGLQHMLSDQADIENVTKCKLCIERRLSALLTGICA", "test": "co-IP; whole cell lysates of HCT-15 cells transfected with Flag-ULK1 or vector; precipitated with anti-ULK1; Western blot"}, "Flag-ULK1 [4]": {"molecular_target": "T3, Flag-ULK1", "test": "co-IP; whole cell lysates of HCT-15 cells co-transfected with myc-Lon and Flag-ULK1; precipitated with anti-myc (Fig. 5C) or anti-Flag (Fig. S5B); Western blot"}},
  "note": "These are yes or no findings as the source states them, for the method shown. Binding seen in cells or lysates may run through a third protein. Some entries that bind do so weakly or less than the wild type. For some of these results: Tags and fused reporters may be left off the sequences shown.",
  "data": [
    {"molecule": "FIP200 (RB1CC1), endogenous (from UniProt Q8TDY2 1-1594)", "values": [
      {"measurement": "binding", "setting": "[1]", "value": "binds"}
    ]},
    {"molecule": "mitochondrial Lon (endogenous) (protein, UniProt P36776 68-959) FWEASSRGGGAFSGGEDASEGGAEEGAGGAGGSAGAGEGPVITALTPMTIPDVFPHLPLIAITRNPVFPRFIKIIEVKNKKLVELLRRKVRLAQPYVGVFLKRDDSNESDVVESLDEIYHTGTFAQIHEMQDLGDKLRMIVMGHRRVHISRQLEVEPEEPEAENKHKPRRKSKRGKKEAEDELSARHPAELAMEPTPELPAEVLMVEVENVVHEDFQVTEEVKALTAEIVKTIRDIIALNPLYRESVLQMMQAGQRVVDNPIYLSDMGAALTGAESHELQDVLEETNIPKRLYKALSLLKKEFELSKLQQRLGREVEEKIKQTHRKYLLQEQLKIIKKELGLEKDDKDAIEEKFRERLKELVVPKHVMDVVDEELSKLGLLDNHSSEFNVTRNYLDWLTSIPWGKYSNENLDLARAQAVLEEDHYGMEDVKKRILEFIAVSQLRGSTQGKILCFYGPPGVGKTSIARSIARALNREYFRFSVGGMTDVAEIKGHRRTYVGAMPGKIIQCLKKTKTENPLILIDEVDKIGRGYQGDPSSALLELLDPEQNANFLDHYLDVPVDLSKVLFICTANVTDTIPEPLRDRMEMINVSGYVAQEKLAIAERYLVPQARALCGLDESKAKLSSDVLTLLIKQYCRESGVRNLQKQVEKVLRKSAYKIVSGEAESVEVTPENLQDFVGKPVFTVERMYDVTPPGVVMGLAWTAMGGSTLFVETSLRRPQDKDAKGDKDGSLEVTGQLGEVMKESARIAYTFARAFLMQHAPANDYLVTSHIHLHVPEGATPKDGPSAGCTIVTALLSLAMGRPVRQNLAMTGEVSLTGKILPVGGIKEKTIAAKRAGVTCIVLPAENKKDFYDLAAFITEGLEVHFVEHYREIFDIAFPDEQAEALAVER", "values": [
      {"measurement": "binding", "setting": "[2]", "value": "binds"},
      {"measurement": "binding", "setting": "Flag-ULK1 [3]", "value": "binds"}
    ]},
    {"molecule": "myc-Lon (protein, UniProt P36776 68-959) FWEASSRGGGAFSGGEDASEGGAEEGAGGAGGSAGAGEGPVITALTPMTIPDVFPHLPLIAITRNPVFPRFIKIIEVKNKKLVELLRRKVRLAQPYVGVFLKRDDSNESDVVESLDEIYHTGTFAQIHEMQDLGDKLRMIVMGHRRVHISRQLEVEPEEPEAENKHKPRRKSKRGKKEAEDELSARHPAELAMEPTPELPAEVLMVEVENVVHEDFQVTEEVKALTAEIVKTIRDIIALNPLYRESVLQMMQAGQRVVDNPIYLSDMGAALTGAESHELQDVLEETNIPKRLYKALSLLKKEFELSKLQQRLGREVEEKIKQTHRKYLLQEQLKIIKKELGLEKDDKDAIEEKFRERLKELVVPKHVMDVVDEELSKLGLLDNHSSEFNVTRNYLDWLTSIPWGKYSNENLDLARAQAVLEEDHYGMEDVKKRILEFIAVSQLRGSTQGKILCFYGPPGVGKTSIARSIARALNREYFRFSVGGMTDVAEIKGHRRTYVGAMPGKIIQCLKKTKTENPLILIDEVDKIGRGYQGDPSSALLELLDPEQNANFLDHYLDVPVDLSKVLFICTANVTDTIPEPLRDRMEMINVSGYVAQEKLAIAERYLVPQARALCGLDESKAKLSSDVLTLLIKQYCRESGVRNLQKQVEKVLRKSAYKIVSGEAESVEVTPENLQDFVGKPVFTVERMYDVTPPGVVMGLAWTAMGGSTLFVETSLRRPQDKDAKGDKDGSLEVTGQLGEVMKESARIAYTFARAFLMQHAPANDYLVTSHIHLHVPEGATPKDGPSAGCTIVTALLSLAMGRPVRQNLAMTGEVSLTGKILPVGGIKEKTIAAKRAGVTCIVLPAENKKDFYDLAAFITEGLEVHFVEHYREIFDIAFPDEQAEALAVER", "values": [
      {"measurement": "binding", "setting": "Flag-ULK1 [4]", "value": "binds"}
    ]}
  ]
}
